Source: PubChem BioAssay AID1224831 (NIAID, 2016)
Screen: 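Retesting screen hits on the TLR4-driven TNF response with six separate siRNAs each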 (follow-up of hits). Cell system: human THP-1 B5 monocytic leukaemia cells carrying a TNF promoter luciferase reporter, made macrophage-like with PMA. Reagents: single siRNA against human genes, 50 nM. Duration: about 68 h of knock-down, then 4 h LPS. Challenge: LPS (Salmonella minnesota, TLR-grade) at 10 ng/ml for 4 h; PMA 5 ng/ml present during knock-down. Read-out: 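Firefly to renilla luciferase ratio of a TNF promoter reporter after 4 h LPS, scaled to plate median, turned into robust z-score, averaged over replicates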. Reading the numbers: TNF reporter z-score: higher = stronger LPS-induced TNF reporter signal. Hit rule: 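Active when the replicate mean z-score is about -1 or lower, or about 1.5 or higher; lowered and raised TNF reporter signal both count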. Meaning of the calls: active = changed TNF reporter (either direction); inactive = little change.
The deposit covers about 3,500 reagents; shown is a part drawn at random. 731 of them (21%) were called active. 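Active means either lowered or raised reporter signal; the gene-median score did not drive the per-siRNA calls.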 Reagents against one gene are numbered here. Not all columns of the deposit are shown.

TNF reporter z-score, replicate mean, by gene and reagent
TICRR: #1 -0.46 inactive; #2 -0.06 inactive; #3 1.36 inactive; #4 -0.03 inactive; #5 1.72 active; #6 -0.25 inactive
TRIM56: #1 -0.45 inactive; #2 -1.72 active; #3 3.26 active; #4 0.45 inactive; #5 -0.45 inactive; #6 1.36 inactive
MRPS10: #1 2.15 active; #2 0.27 inactive; #3 -0.82 inactive; #4 -0.07 inactive; #5 3.94 active; #6 0.08 inactive
TWIST1: #1 -0.85 inactive; #2 1.72 active; #3 0.21 inactive; #4 3.59 active; #5 0.54 inactive; #6 -0.09 inactive
MEX3D: #1 -0.11 inactive; #2 0.75 inactive; #3 -1.82 active; #4 1.15 inactive; #5 -0.51 inactive; #6 1.19 inactive
PRR15: #1 -0.56 inactive; #2 0.19 inactive; #3 0.49 inactive; #4 -0.59 inactive; #5 -0.24 inactive; #6 -0.46 inactive
IGFLR1: #1 1.78 active; #2 -0.2 inactive; #3 0.2 inactive; #4 -0.63 inactive; #5 -0.13 inactive; #6 -0.14 inactive
PSMC1: #1 -1.69 active; #2 -0.99 inactive; #3 -1.81 active; #4 -0.82 inactive; #5 -0.43 inactive; #6 -1.55 active
XRCC4: #1 3.97 active; #2 0.64 inactive; #3 1.12 inactive; #4 0.46 inactive; #5 -0.29 inactive; #6 -1.59 active
LZTS2: #1 1.08 inactive; #2 -0.06 inactive; #3 -0.69 inactive; #4 -0.18 inactive; #5 1.92 active; #6 3.42 active
